Source: PubChem BioAssay AID1259327 (Drosophila RNAi Screening Center, 2017)
Assay: 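Knock-downs altering cellular ATP with no metal added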. System: Drosophila S2R+ cells. Reagents: long dsRNA against Drosophila genes. Time to read-out: 5 days (water added on day 4, read one day later). Conditions: water added as vehicle, no metal, one day before read-out. Measured: 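Luciferase ATP signal per well, normalised to plate mean, duplicate average converted to z-score across plates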. Direction: ATP z-score: higher = more total ATP than typical wells; ATP luminescence: higher = more total ATP. Call rule: 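Called active when the ATP z-score exceeds 1.5 or falls below -1.5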. Calls: active = hit: ATP up or down; inactive = no clear ATP change.
Shown is one part, drawn at random, of about 3,100 reagents tested. 378 of all reagents (12%) were called active. 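Hits include both directions; z-score sign shows ATP rise or fall; raw luminescence values are not plate-normalised.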 A number with no mark means an inactive call. The numbers tell different reagents against one gene apart. Names joined by + are all predicted targets of the reagent. The record does not give: the amount of reagent.

| target | reagent | ATP z-score, duplicate mean | ATP luminescence, replicate 1 (RLU) | ATP luminescence, replicate 2 (RLU) |
| --- | --- | --- | --- | --- |
| Ctl2 (Choline transporter-like 2) | 1 | -0.401 | 8.82e5 | 6.77e5 |
| Ih (I[[h]] channel) | 1 | 0.338 | 8.03e5 | 7.30e5 |
| Ih (I[[h]] channel) | 2 | -1.06 | 6.80e5 | 7.59e5 |
| PMP34 (Peroxisomal Membrane Protein 34) | 1 | 0.741 | 6.32e5 | 6.53e5 |
| PMP34 (Peroxisomal Membrane Protein 34) | 2 | -1.1 | 3.86e5 | 3.75e5 |
| Amt (Ammonium transporter) | 1 | 0.211 | 3.25e5 | 7.42e5 |
| Amt (Ammonium transporter) | 2 | -0.664 | 1.02e6 | 1.18e6 |
| Ir67b (Ionotropic receptor 67b) | 1 | 1.26 | 9.33e5 | 1.18e6 |
| Nrx-IV (Neurexin IV) | 1 | -0.927 | 6.88e5 | 5.74e5 |
| Nrx-IV (Neurexin IV) | 2 | -1.09 | 3.96e5 | 4.09e5 |
| CR7448 (pseudo) | 1 | -1.74 (active) | 4.98e5 | 5.93e5 |
| CR7448 (pseudo) | 2 | -0.6 | 6.67e5 | 8.85e5 |
| CG7497 | 1 | 1.56 (active) | 9.86e5 | 1.18e6 |
| CG7497 | 2 | 1.85 (active) | 7.69e5 | 7.03e5 |
| Sb (Stubble) | 1 | -0.229 | 3.07e5 | 6.91e5 |
| Sb (Stubble) | 2 | 0.6 | 9.60e5 | 8.36e5 |
| GluRIIA (Glutamate receptor IIA) | 1 | -0.0456 | 7.34e5 | 7.09e5 |
| trp (transient receptor potential) | 1 | 0.637 | 5.04e5 | 7.65e5 |
| trp (transient receptor potential) | 2 | 0.152 | 4.47e5 | 5.06e5 |

Entries listed so far whose gene name starts with C or c:
| target | reagent | ATP z-score, duplicate mean | ATP luminescence, replicate 1 (RLU) | ATP luminescence, replicate 2 (RLU) |
| --- | --- | --- | --- | --- |
| Ctl2 (Choline transporter-like 2) | 1 | -0.401 | 8.82e5 | 6.77e5 |
| CR7448 (pseudo) | 1 | -1.74 (active) | 4.98e5 | 5.93e5 |
| CR7448 (pseudo) | 2 | -0.6 | 6.67e5 | 8.85e5 |
| CG7497 | 1 | 1.56 (active) | 9.86e5 | 1.18e6 |
| CG7497 | 2 | 1.85 (active) | 7.69e5 | 7.03e5 |

Further reagents:
| target | reagent | ATP z-score, duplicate mean | ATP luminescence, replicate 1 (RLU) | ATP luminescence, replicate 2 (RLU) |
| --- | --- | --- | --- | --- |
| Fur1 (Furin 1) | 1 | 0.965 | 1.14e6 | 9.12e5 |
| Fur1 (Furin 1) | 2 | 1.35 | 8.98e5 | 7.94e5 |
| mGluR (metabotropic Glutamate Receptor) | 1 | 1.14 | 5.41e5 | 9.04e5 |
| mGluR (metabotropic Glutamate Receptor) | 2 | 1.43 | 5.95e5 | 5.30e5 |
| CG5805 | 1 | -1.79 (active) | 5.30e5 | 5.12e5 |
| CG5805 | 2 | -2.14 (active) | 3.25e5 | 3.14e5 |
| CG6660 | 1 | 0.755 | 8.04e5 | 7.63e5 |
| CG42340 | 1 | 1.2 | 9.70e5 | 6.90e5 |
| CG42340 | 2 | 0.496 | 9.15e5 | 8.52e5 |
| disp (dispatched) | 1 | -0.157 | 9.53e5 | 8.01e5 |
| disp (dispatched) | 2 | 0.607 | 4.76e5 | 5.70e5 |
| Ir25a (Ionotropic receptor 25a) | 1 | 0.414 | 7.74e5 | 7.66e5 |
| Ir25a (Ionotropic receptor 25a) | 2 | 0.0428 | 7.88e5 | 9.18e5 |
| CG7912 | 1 | 0.353 | 5.92e5 | 7.66e5 |
| Or33a (Odorant receptor 33a) | 1 | -0.368 | 7.54e5 | 6.22e5 |
| hbt + CG43779 | 1 | 0.183 | 5.65e5 | 6.26e5 |
| hbt + CG43779 | 2 | 0.782 | 5.77e5 | 4.57e5 |
| Mdr49 (Multi drug resistance 49) | 1 | -0.619 | 6.31e5 | 7.00e5 |
| Mdr49 (Multi drug resistance 49) | 2 | 0.264 | 9.12e5 | 8.54e5 |
| Cals (Calsyntenin) | 1 | -0.598 | 6.30e5 | 6.58e5 |
| Cals (Calsyntenin) | 2 | -1.33 | 4.81e5 | 6.44e5 |
| CG10073 | 1 | 2.31 (active) | 8.60e5 | 7.97e5 |
| CG8026 | 1 | -0.818 | 5.45e5 | 5.46e5 |
| brv3 (brivido-3) | 1 | 2.17 (active) | 9.81e5 | 1.13e6 |
| Task6 (TWIK-related acid-sensitive K[+] channel 6) | 1 | 0.487 | 3.14e5 | 8.33e5 |
| Task6 (TWIK-related acid-sensitive K[+] channel 6) | 2 | -1.74 (active) | 3.74e5 | 3.04e5 |
| Rab3-GEF (Rab3 GDP-GTP exchange factor) | 1 | 0.178 | 5.36e5 | 6.94e5 |
| Rab3-GEF (Rab3 GDP-GTP exchange factor) | 2 | 0.156 | 7.38e5 | 7.83e5 |
| Rab3-GEF (Rab3 GDP-GTP exchange factor) | 3 | 0.541 | 8.56e5 | 1.33e6 |
